Results are given in words; binding and its absence hold for the method and conditions named. Binding seen in cells or lysates may run through a third protein. A result given as binding can be weak or reduced; the word gives no strength.

The experiment deals with T1, LZTFL1 (endogenous) (human (endogenous in HEK293T)) (UniProt Q9NQ48).
T1 sequence: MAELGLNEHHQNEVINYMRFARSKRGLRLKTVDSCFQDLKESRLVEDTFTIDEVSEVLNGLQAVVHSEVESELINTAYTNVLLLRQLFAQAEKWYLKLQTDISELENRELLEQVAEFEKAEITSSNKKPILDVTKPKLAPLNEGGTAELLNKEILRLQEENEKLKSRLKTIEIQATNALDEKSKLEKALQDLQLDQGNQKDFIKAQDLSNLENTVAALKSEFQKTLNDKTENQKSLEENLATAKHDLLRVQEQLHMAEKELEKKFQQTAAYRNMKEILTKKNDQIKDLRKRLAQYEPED
The experiment can be described thus: co-IP; HEK293T cells (no transfection named); immunoprecipitated with control IgG or anti-LZTFL1 antibody, blotted with anti-AKT or anti-LZTFL1 antibody.

Regarding “AKT (endogenous) (human (endogenous in HEK293T)) (enzyme)”, the binding entry is reported as “binds”.

Values taken from publication PMC10039360.
